Reference: patent US20120204273A1, “COMPOSITIONS RELATING TO A PHOSPHOPROTEIN AND METHODS OF USE” (SANFORD-BURNHAM MEDICAL RESEARCH INSTITUTE, priority 2010, published 2012)
At least one structure is not confirmed: it was looked up by name or label, or the drawing left a doubt.

Columns and labels:
[1] = test system: CDP138; test: Endogenous CDP138 mobility shift in 3T3-L1 adipocytes (IP and immunoblotting); assay type: cell-based, mouse; conditions: LY294002 50 μM for 1 hour before insulin
[2] = test system: HA-CDP138; test: Phosphorylation of HA-CDP138 in CHO-T cells (anti-HA IP, PAS antibody blot); assay type: cell-based, hamster; conditions: wortmannin 100 nM for 20 min before insulin
From the text: FIG. 1, panels A-D, show an uncharacterized C2 domain-containing protein encoded by 5730419I09Rik is a novel phosphoprotein identified in insulin-stimulated adipocytes using a SILAC phosphoproteomic approach. (A): Schematic procedure for SILAC quantitative proteomics used for identification and quantification of peptide from CDP138 (5730419I09Rik). Top right panel: quantification of CDP138 peptide from different groups of adipocytes. Lower right panel: Schematic diagram of CDP138 and the identified phosphorylation sites. (B): Confirmation of CDP138 phosphorylation induced by insulin. CHO-T cells expressing HA-CDP138, or differentiated 3T3-L1 adipocytes were treated with or without insulin (100 nM) for 15 min. A third sample was pretreated with wortmannin (100 nM, WM) for 20 min or LY294002 (50 μM, LY) for 1 hour before insulin stimulation. […] CDP138, pS473-Akt and Akt protein were also detected with total cell lysates. […] Whole cell extracts (25 μg total protein) from different tissues (lean mice, left panel) and epididymal fat pads from both ob/ob and lean mice (24 weeks old, Jackson Lab, Bar Harbor, Me.; middle panel) were analyzed by immunoblotting with antibodies against CDP138, IRS-1, Akt, Erk1/2, and β-actin. Right panel: quantification of CDP138 protein levels in fat tissues from lean and obese mice. […]

[3] = test system: CDP138; test: SILAC quantitative phosphoproteomics with PAS antibody immunoprecipitation in 3T3-L1 adipocytes; assay type: cell-based, mouse; conditions: wortmannin followed by insulin
Description: Preparation of the Triple-Labeling SILAC Media. Arginine- and lysine-free DMEM was divided into three equal portions and 28 mg/liter of the three Arginine isotopes were added separately to make the Arg-0, Arg-6, and Arg-10 media, respectively. In addition, 48.7 mg/liter L-lysine, L-lysine-D4, and L-lysine13C6, 15N2 were supplemented separately to the three lots containing Arg-0, Arg-6, and Arg-10. Finally, glutamine and antibiotics were added to the media together with the full complement of amino acids (Arg-0/Lys-H4, Arg-6/Lys-D4, and Arg-10/Lys-8) and then sterile-filtered (Millipore). The sterile media were separated into two portions for dialyzed serum-containing and serum free media.
Mass Spectrometric Analysis. For SILAC quantitative proteomic study, the mixture of total lysates from the 3 different groups (as shown in FIG. 1A) was used for immunoprecipitation with PAS antibodies. Enriched proteins were resolved by SDS-PAGE. […] Only proteins that had at least 2 ion scores >20 were identified and quantified. MaxQuant was used to verify and quantify the resulting peptide pairs.
Identification of CDP138 as a novel Akt2 substrate using SILAC-based quantitative proteomics. […] The tryptic peptides were subsequently analyzed by tandem mass spectrometry (MS). […]

Row | SMILES | effect on insulin-induced apparent size shift of CDP138 in SDS-PAGE [1] | effect on insulin-stimulated phosphorylation of HA-CDP138 [2] | effect on insulin-induced enrichment of CDP138 [3]
1 | O=c1cc(N2CCOCC2)oc2c(-c3ccccc3)cccc12 [LY294002] | reversed | – | –
2 | COC[C@H]1OC(=O)c2coc3c2[C@@]1(C)C1=C(C3=O)[C@@H]2CCC(=O)[C@@]2(C)C[C@H]1OC(C)=O [wortmannin, reference compound] | – | significantly inhibited | inhibited
